In the supplement of paper PMC6411743:
± gives the standard deviation of the averaged measurements. The entries are a selection whose mix differs from that of the whole data set. Small differences around the control level are noise.

Chains of the proteins cited; added tags and fusions are not shown. Lines headed by an entry give the natural chain unless they say otherwise; changes in a name come on top.
UniProt Q9H6F5: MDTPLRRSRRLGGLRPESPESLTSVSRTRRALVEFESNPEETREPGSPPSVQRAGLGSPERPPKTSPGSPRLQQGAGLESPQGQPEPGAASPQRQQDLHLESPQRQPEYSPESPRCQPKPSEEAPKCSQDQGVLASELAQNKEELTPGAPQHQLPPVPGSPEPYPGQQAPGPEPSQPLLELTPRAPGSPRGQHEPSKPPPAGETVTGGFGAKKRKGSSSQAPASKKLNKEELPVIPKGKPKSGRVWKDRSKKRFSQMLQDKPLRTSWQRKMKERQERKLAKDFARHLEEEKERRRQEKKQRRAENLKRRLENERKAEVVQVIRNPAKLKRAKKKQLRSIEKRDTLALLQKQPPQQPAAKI
UniProt Q9NPI1: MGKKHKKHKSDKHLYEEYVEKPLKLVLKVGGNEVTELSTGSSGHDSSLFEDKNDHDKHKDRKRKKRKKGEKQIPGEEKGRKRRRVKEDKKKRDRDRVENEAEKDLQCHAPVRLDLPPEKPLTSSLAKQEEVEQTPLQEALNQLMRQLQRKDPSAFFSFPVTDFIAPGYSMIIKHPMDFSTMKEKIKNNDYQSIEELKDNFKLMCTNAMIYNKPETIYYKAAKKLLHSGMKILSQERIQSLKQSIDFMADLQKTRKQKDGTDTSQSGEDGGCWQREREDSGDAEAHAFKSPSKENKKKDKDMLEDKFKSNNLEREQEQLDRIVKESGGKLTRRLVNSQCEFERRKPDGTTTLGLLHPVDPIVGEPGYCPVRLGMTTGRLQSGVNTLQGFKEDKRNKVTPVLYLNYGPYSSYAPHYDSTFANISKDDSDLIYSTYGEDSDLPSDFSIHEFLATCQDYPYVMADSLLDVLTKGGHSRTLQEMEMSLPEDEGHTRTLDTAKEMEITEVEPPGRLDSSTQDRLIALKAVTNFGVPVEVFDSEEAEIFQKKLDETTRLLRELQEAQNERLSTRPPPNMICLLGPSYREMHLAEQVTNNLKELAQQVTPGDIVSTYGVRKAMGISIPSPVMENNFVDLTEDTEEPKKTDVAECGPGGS
UniProt Q9HDC5: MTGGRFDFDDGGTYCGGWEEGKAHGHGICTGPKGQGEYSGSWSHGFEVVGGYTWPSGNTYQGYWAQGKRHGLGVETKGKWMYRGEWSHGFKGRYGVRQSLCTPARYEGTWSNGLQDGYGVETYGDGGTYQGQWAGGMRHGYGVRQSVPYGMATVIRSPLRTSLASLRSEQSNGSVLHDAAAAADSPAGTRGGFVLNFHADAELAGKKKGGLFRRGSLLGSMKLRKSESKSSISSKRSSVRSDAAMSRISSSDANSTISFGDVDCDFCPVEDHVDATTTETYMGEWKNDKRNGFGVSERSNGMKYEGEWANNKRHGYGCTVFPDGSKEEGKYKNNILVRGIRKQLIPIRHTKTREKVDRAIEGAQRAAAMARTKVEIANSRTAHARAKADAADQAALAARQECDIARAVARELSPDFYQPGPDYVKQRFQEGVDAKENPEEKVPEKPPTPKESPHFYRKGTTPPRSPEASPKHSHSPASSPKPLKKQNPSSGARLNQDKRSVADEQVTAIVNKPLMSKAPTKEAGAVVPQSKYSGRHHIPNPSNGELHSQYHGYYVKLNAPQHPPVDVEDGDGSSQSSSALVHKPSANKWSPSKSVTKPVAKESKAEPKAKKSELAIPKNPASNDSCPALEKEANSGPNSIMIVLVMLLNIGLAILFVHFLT
UniProt Q9HC36: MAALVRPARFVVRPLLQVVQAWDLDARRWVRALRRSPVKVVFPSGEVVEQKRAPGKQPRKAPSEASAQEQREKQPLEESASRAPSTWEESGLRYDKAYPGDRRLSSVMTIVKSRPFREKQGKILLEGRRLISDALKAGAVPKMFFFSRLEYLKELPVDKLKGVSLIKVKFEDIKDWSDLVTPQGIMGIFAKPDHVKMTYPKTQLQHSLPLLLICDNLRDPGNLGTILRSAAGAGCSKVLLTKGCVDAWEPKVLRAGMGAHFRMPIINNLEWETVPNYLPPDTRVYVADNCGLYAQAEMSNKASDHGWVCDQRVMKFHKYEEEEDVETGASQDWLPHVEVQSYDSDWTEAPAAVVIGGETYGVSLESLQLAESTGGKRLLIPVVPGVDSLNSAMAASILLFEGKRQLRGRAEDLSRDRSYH
UniProt Q9H4A4: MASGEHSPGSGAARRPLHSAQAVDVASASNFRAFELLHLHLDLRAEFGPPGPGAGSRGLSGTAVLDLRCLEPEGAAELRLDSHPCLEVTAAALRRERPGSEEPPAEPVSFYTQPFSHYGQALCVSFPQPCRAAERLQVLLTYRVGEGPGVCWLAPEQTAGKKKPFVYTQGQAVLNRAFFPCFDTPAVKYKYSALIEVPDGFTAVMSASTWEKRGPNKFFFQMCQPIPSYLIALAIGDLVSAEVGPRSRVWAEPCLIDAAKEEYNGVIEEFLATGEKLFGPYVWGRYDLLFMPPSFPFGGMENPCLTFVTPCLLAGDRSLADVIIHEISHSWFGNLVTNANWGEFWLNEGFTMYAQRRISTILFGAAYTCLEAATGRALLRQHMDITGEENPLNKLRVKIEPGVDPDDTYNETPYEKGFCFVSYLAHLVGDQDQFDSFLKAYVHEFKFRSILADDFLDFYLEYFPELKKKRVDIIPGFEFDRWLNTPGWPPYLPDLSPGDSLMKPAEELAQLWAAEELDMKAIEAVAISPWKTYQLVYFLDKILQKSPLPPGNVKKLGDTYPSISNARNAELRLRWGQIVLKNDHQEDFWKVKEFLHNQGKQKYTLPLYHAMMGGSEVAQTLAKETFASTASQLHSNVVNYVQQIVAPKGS
UniProt Q9H1D9: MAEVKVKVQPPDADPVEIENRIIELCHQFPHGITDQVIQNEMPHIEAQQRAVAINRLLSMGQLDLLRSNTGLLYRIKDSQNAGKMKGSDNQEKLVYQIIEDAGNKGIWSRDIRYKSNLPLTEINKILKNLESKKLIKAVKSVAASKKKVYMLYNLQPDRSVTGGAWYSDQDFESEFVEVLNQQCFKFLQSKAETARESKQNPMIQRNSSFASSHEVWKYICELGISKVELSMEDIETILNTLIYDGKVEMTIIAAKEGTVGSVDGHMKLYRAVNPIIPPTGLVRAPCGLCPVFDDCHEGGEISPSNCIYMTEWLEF
UniProt Q9H0R4: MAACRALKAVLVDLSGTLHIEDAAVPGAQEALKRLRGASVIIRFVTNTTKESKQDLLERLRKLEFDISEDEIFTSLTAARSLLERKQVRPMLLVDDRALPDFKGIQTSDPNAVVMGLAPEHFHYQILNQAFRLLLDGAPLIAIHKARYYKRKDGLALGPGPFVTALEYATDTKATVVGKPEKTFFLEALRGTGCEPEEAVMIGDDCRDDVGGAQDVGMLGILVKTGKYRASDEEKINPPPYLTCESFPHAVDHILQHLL
UniProt Q9H6W3: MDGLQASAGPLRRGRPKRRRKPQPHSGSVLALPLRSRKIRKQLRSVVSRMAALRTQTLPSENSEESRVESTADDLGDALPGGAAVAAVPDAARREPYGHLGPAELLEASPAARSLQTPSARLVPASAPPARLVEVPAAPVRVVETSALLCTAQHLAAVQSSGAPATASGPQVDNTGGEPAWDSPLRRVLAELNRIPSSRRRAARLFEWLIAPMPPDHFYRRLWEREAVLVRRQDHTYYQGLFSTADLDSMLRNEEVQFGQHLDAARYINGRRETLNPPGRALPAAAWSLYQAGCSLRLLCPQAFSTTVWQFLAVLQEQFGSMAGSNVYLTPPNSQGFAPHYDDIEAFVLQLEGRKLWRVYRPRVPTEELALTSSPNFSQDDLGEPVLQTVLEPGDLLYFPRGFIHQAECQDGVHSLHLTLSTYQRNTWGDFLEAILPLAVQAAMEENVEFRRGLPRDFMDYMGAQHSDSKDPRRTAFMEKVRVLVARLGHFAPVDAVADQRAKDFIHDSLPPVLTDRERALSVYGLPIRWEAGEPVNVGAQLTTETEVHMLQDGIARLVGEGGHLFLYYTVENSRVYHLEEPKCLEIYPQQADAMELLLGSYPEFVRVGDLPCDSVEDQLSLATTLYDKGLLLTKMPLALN
UniProt Q9BZK7: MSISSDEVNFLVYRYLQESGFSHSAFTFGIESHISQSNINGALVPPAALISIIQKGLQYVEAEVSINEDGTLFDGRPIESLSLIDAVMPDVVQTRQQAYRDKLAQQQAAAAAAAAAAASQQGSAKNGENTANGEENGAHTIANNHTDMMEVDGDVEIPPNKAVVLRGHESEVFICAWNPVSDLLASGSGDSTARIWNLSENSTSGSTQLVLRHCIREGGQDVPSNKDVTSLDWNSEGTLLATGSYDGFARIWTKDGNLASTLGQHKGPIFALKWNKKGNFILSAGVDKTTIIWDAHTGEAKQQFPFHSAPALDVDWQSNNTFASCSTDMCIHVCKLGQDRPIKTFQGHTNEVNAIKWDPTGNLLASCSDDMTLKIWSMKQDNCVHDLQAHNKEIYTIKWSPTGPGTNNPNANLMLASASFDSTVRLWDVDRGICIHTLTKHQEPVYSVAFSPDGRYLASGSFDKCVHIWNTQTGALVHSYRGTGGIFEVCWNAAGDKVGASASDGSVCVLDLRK
UniProt Q9H6A9: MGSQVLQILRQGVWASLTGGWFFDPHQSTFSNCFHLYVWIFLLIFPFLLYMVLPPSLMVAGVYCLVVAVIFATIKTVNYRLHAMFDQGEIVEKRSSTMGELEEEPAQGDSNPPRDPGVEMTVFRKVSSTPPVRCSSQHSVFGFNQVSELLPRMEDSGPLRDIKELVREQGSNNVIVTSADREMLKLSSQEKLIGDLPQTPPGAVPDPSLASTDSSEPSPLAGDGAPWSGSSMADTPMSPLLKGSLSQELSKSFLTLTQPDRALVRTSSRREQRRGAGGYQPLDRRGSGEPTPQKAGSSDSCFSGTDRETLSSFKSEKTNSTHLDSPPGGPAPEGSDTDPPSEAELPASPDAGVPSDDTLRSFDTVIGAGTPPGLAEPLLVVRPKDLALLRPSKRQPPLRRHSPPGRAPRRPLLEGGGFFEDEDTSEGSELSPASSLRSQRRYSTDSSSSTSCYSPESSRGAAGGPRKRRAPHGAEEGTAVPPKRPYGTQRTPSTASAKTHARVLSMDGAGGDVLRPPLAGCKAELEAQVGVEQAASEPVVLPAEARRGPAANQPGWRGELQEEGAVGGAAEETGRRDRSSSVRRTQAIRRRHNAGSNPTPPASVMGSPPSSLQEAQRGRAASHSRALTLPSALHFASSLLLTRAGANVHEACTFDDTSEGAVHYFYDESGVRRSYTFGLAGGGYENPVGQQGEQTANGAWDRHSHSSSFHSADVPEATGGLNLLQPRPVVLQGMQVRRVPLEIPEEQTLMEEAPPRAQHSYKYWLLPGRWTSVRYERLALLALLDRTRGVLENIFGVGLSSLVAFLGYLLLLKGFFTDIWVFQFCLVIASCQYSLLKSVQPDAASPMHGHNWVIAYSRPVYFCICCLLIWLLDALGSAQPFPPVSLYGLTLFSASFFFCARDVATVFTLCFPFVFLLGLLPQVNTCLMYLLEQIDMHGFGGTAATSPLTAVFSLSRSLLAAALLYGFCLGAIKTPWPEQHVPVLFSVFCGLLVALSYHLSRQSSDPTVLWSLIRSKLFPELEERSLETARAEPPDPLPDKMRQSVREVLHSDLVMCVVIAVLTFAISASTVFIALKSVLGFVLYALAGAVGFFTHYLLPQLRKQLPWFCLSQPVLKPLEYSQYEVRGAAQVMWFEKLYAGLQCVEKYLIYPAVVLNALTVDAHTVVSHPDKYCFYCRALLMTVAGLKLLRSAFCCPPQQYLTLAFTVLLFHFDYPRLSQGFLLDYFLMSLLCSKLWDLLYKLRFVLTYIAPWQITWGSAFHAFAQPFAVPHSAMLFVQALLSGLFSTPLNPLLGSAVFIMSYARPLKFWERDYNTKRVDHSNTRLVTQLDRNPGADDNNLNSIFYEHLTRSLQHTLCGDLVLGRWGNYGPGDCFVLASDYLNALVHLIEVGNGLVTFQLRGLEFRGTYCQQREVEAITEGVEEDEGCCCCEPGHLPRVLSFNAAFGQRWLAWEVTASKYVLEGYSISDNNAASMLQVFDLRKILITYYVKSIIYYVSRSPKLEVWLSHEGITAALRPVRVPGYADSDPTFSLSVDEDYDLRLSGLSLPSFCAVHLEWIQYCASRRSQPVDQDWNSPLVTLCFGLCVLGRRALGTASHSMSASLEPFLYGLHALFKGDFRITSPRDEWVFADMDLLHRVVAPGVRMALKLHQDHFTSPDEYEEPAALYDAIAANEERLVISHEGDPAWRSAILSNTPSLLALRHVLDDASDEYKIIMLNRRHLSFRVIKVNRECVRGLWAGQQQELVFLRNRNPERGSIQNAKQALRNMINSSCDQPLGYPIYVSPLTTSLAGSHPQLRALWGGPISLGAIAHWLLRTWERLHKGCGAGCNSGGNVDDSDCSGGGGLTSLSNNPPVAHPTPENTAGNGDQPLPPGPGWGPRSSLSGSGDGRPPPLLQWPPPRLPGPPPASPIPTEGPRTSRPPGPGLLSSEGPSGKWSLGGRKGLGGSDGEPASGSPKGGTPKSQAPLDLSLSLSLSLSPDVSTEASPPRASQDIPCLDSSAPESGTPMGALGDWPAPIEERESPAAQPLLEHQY

Compound: Nc1ncnc2c1ncn2[C@@H]1O[C@H](COP(=O)(O)OP(=O)(O)NP(=O)(O)O)[C@@H](O)[C@H]1O [adenylyl imidodiphosphate]
Assay: NP40-soluble protein abundance relative to vehicle (solubility fold change) (ratio); higher = more soluble protein in presence of AMP-PNP
Summary of the method: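 In three independent experiments, Jurkat crude lysate made by Dounce homogenisation was treated for 10 min at room temperature and then 3 min at 37 °C with eight concentrations ranging from 0.1 to 10 mM. It was then solubilised with 0.8% NP40 plus benzonase for 60 min at 4 °C and ultracentrifuged. The supernatant was TMT-labelled for LC-MS/MS, and each value is the fold change against the detergent-processed vehicle for the same replicate, using vsn-normalised intensities.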

Target	NP40-soluble protein abundance (concentration: 0.1mM)	NP40-soluble protein abundance (concentration: 0.5mM)
CCDC86 (UniProt Q9H6F5)	1.05 ± 0.026	1.01 ± 0.026
RRAGC (UniProt Q9HB90)	1 ± 0.032	1.01 ± 0.03
UniProt Q9H903 and related entries	0.983 ± 0.047	1.01 ± 0.031
UniProt Q9H2V7 and related entries	0.988 ± 0.016	1 ± 0.032
UniProt Q9H6Q4	1.02 ± 0.025	0.987 ± 0.01
FAM117A (UniProt Q9C073)	1.02 ± 0.04	1.01 ± 0.016
UniProt Q9NPI1 and related entries	1.06 ± 0.014	1.06 ± 0.075
UniProt Q9HAF1 and related entries	0.972 ± 0.017	1 ± 0.026
UniProt Q9H9J4 and related entries	1.01 ± 0.025	1.02 ± 0.017
UniProt Q9H5X1	1.004 ± 0.01	1 ± 0.032
SCAF1 (UniProt Q9H7N4)	0.989 ± 0.042	1.04 ± 0.033
JPH1 (UniProt Q9HDC5)	0.997 ± 0.033	0.996 ± 0.041
PLEKHA1 (UniProt Q9HB21)	0.985 ± 0.036	0.991 ± 0.022
EXOSC4 (UniProt Q9NPD3)	1.04 ± 0.028	1.01 ± 0.074
UniProt Q9HC36	1.02 ± 0.033	1.03 ± 0.023
UniProt Q9HA65 and related entries	1.07 ± 0.02	1.08 ± 0.083
VPS37B (UniProt Q9H9H4)	1.01 ± 0.029	1.02 ± 0.059
UniProt Q9GZY8-2	1.025 ± 0.0075	0.9957 ± 0.0057
GHITM (UniProt Q9H3K2)	1 ± 0.037	0.986 ± 0.092

Quoted at random: 3 records from the list.
Target	NP40-soluble protein abundance (concentration: 0.1mM)	NP40-soluble protein abundance (concentration: 0.5mM)
GHITM (UniProt Q9H3K2)	1 ± 0.037	0.986 ± 0.092
UniProt Q9H2V7 and related entries	0.988 ± 0.016	1 ± 0.032
UniProt Q9HA65 and related entries	1.07 ± 0.02	1.08 ± 0.083

Additional entries follow:

Target	NP40-soluble protein abundance (concentration: 0.1mM)	NP40-soluble protein abundance (concentration: 0.5mM)
UniProt Q9HD33 and related entries	1.06 ± 0.038	1.03 ± 0.057
UniProt Q9H9Y6 and related entries	1.03 ± 0.053	1 ± 0.086
UniProt Q9H4A4 and related entries	1.02 ± 0.039	1.03 ± 0.048
SENP3 (UniProt Q9H4L4)	1.01 ± 0.028	0.991 ± 0.052
TAOK3 (UniProt Q9H2K8)	1.01 ± 0.022	1.04 ± 0.03
LRRC40 (UniProt Q9H9A6)	1.01 ± 0.047	0.977 ± 0.034
UniProt Q9H3H3-2|Q9H3H3-3	1.01 ± 0.028	0.967 ± 0.066
UniProt Q9HC21 and related entries	1.03 ± 0.055	0.989 ± 0.077
UniProt Q9H2G2-2	0.974 ± 0.02	1.01 ± 0.024
UniProt Q9H330-2	0.976 ± 0.025	0.988 ± 0.051
UniProt Q9NP92 and related entries	1.07 ± 0.064	1.06 ± 0.052
POLR3F (UniProt Q9H1D9)	0.972 ± 0.015	0.981 ± 0.032
UniProt Q9H4X1 and related entries	1 ± 0.02	1.01 ± 0.051
UniProt Q9H0R4 and related entries	0.9878 ± 0.0088	1.03 ± 0.046
UniProt Q9H6W3	1.01 ± 0.04	0.98 ± 0.069
UniProt Q9BZK7 and related entries	1.03 ± 0.015	1.01 ± 0.049
NMRAL1 (UniProt Q9HBL8)	1.01 ± 0.036	1.01 ± 0.04
UniProt Q9H6A9 and related entries	0.986 ± 0.032	1.01 ± 0.046
UniProt Q9H8V3 and related entries	0.985 ± 0.023	0.999 ± 0.024
